The record followed here is PMC6176016.

In assay [1] the target is T1, TACI-L (long TACI isoform) labeled with mCherry or YFP (human) (UniProt O14836).
T1 sequence: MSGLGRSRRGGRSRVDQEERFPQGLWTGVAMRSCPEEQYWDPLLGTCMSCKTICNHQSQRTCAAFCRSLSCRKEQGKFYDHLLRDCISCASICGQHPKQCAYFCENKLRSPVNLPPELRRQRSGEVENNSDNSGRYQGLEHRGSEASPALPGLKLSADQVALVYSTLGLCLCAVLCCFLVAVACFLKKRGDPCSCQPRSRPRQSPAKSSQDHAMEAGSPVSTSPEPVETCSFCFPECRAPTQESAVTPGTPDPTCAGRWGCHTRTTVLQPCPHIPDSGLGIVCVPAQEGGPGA
Briefly: FRET or BRET; YFP and mCherry labeled proteins co-transfected (1 ug of each plasmid) into HEK-293T cells, 48 h, FRET signal read by FACS (LSRII or LSRFortessa); adding rhAPRIL or rhBAFF had no effect on the TACI-TACI signal.

Assay [2] has as its target T2, TACI-S (short TACI isoform) labeled with mCherry or YFP (human) (UniProt O14836).
T2 sequence: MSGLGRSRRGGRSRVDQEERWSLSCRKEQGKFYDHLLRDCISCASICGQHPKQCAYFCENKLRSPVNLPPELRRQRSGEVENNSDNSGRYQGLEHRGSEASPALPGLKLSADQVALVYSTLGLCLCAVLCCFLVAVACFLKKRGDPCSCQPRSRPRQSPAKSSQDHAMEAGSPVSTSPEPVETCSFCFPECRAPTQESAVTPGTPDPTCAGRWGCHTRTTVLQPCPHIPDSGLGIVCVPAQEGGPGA
The description is as above.

No constants are given. Whether binding was seen depends on the method and setting. Binding seen in cells or lysates may run through a third protein. Binding can be weak; no strength is given. Where a sequence is shown, tags or fusion partners need not be part of it.

As to “TACI-S S194X, mCherry labeled (human) (receptor)”, the binding result in assay [1] and in assay [2] was “binds” throughout.

Consider “TACI-S A181E, mCherry labeled (human) (receptor)”, for which the binding result in assay [1] and in assay [2] was “binds” throughout.

As for “TACI-S C104R, mCherry labeled (human) (receptor)”, the binding entry in assay [1] and in assay [2] was “binds” each time.
